Test results from PubChem BioAssay AID1347076 (National Center for Advancing Translational Sciences (NCATS), 2019).
Out of some 400,000 compounds screened, about 13,000 (3.2%) were called active. Inconclusive means that the source gave no clear call. Such entries were picked first, then a sample of the others. Calls follow the shape of the dose curve; as a rule, active = well fitted cell-killing curve with a large enough effect; inconclusive = small, poorly fitted or top-dose-only effect, or effect the other way; inactive = flat fitted curve, though single readings scatter. Where the call is inconclusive, the potency comes from a doubtful curve fit.
% is scaled to controls: 0 for no effect and ±100 for the full control effect; potency is read from the fitted curve at half-maximal effect.

Assay: qHTS assay for MDR1-selective chemotherapeutics: Primary screen using the drug-selected MDR subline cells KB-V1; also: nearly all actives have a fitted effect of over 60% in size
Details: KB-V1 MDR cells viability, CellTiter-Glo, 72 h; activity change, negative = cytotoxicity: at 46.1 µM (top of the series)
How it was run: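 In this primary screen, KB-V1 cells overexpressing P-gp are incubated with library compounds (lowest to highest concentration) for 72 h at 37 degrees C before a luminescent ATP viability read.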
With `Cc1ccc(NC(=O)C2C3C=CC4(CN(Cc5cccnc5)C(=O)C24)O3)cc1` (centres undefined) the Potency was inconclusive: 29.1 µM [rising, single point].
For `CC(C)[C@H]1COCCS(=O)(=O)N1Cc1cccc([N+](=O)[O-])c1`, the “activity change, negative = cytotoxicity” value was inactive: 2.81%.
For `CCOc1ccc2c(c1)nc(SCC(=O)c1cccs1)n2C`, the Potency was inconclusive: 9.2 µM [cytotoxic, partial curve, poor fit].
For `CN(c1ccccc1)c1nc(N)c([N+](=O)[O-])c(NCc2ccccc2)n1`, the Potency was inconclusive: 29.1 µM [cytotoxic, single point].
For `O=C(NC1CCSc2ccccc21)c1ccc(Cl)c(S(=O)(=O)N2CCOCC2)c1` (centres undefined), the Potency was inconclusive: 11.6 µM [cytotoxic, partial curve, poor fit].
For `COC(=O)[C@]12CCCCC=C1N(Cc1ccccc1)C(=O)[C@H](CC(=O)N1CCC(c3ccccc3)CC1)C2`, the Potency was inconclusive: 18.4 µM [cytotoxic, partial curve].
With `Fc1ccc(-c2nc3c(Cl)cc(C(F)(F)F)cn3c2Cc2cccc(F)c2)cc1` the Potency was inconclusive: 29.1 µM [cytotoxic, single point].
For `O=C(CSC(=S)N1CCN(c2ccccc2)CC1)Nc1nc(-c2ccccc2)c(-c2ccccc2)o1`, the “activity change, negative = cytotoxicity” value was inactive: -9%.
For `CCOC(=O)CSC1=C(C#N)C(c2ccco2)C(C(=O)OCc2ccccc2)=C(C)N1` (centres undefined), the Potency was inconclusive: 29.1 µM [cytotoxic, single point].
In the case of `CN(c1ccccc1)c1nc(N)c([N+](=O)[O-])c(N2CCCCCC2)n1`, the Potency is reported as inconclusive: 16.4 µM [cytotoxic, single point].
For `COc1ccc(NC(=O)c2c(NC(=O)c3ccncc3)sc3c2CCC(C(C)(C)C)C3)cc1` (centres undefined), the Potency was inconclusive: 16.4 µM [rising, partial curve, poor fit].
In the case of `Cc1ncoc1C(=O)Nc1ccc(Oc2ccccc2)cc1`, the Potency is reported as active: 18.4 µM.
With `OCC1(CCOc2ccccc2)CCN(Cc2cc(Cl)ccc2O)CC1` the Potency was inconclusive: 29.1 µM [cytotoxic, single point].
For `CN1C(=O)S/C(=C/c2ccccc2OCc2ccc(C(=O)O)cc2)C1=O`, the Potency was inconclusive: 20.6 µM [rising, single point].
In the case of `CCOc1ccc2nc(NC(=O)C(CCSC)NS(=O)(=O)c3cccs3)sc2c1` (centres undefined), the Potency is reported as inconclusive: 18.4 µM [cytotoxic, partial curve, poor fit].
With `C/C(=N\NC(=O)C(=O)Nc1ccc(C)cc1)c1ccncc1` the Potency was inconclusive: 18.4 µM [cytotoxic, single point].
With `Cc1ccc(Cl)cc1NC(=O)C1CCN(S(=O)(=O)c2cccc3nonc23)CC1` the “activity change, negative = cytotoxicity” value was inactive: -19.4%.
For `Cc1occc1C(=O)N/N=C/c1ccc(Br)s1`, the “activity change, negative = cytotoxicity” value was inactive: -22.2%.
For `NC(=O)c1ccccc1NC(=O)CN1CCN(Cc2ccc(Cl)cc2Cl)CC1`, the Potency was inconclusive: 1.3 µM [cytotoxic, partial curve].
For `Cc1cccc(C)c1NC(=O)CC(C)c1ccccc1` (centres undefined), the “activity change, negative = cytotoxicity” value was inactive: 7.42%.
In the case of `COc1cccc(NC(=O)C(Sc2nnc(-c3ccncc3)n2-c2ccc(Cl)cc2)c2ccccc2)c1` (centres undefined), the Potency is reported as inconclusive: 29.1 µM [cytotoxic, single point].
With `COC(=O)[C@@]1(Cc2ccc(F)cc2)[C@H]2c3cc(C(=O)N(C)C)n(Cc4ccsc4Br)c3C[C@H]2CN1C(=O)c1ccccc1` the Potency was active: 20.6 µM.
In the case of `Cc1cc(C)n(-c2nc(-c3ccc(Cl)c(Cl)c3)cs2)n1`, the “activity change, negative = cytotoxicity” value is reported as inactive: 3.81%.
For `COc1ccccc1NNC(=O)c1cc(C(C)(C)C)nn1Cc1ccccc1`, the Potency was inconclusive: 20.6 µM [cytotoxic, single point].
With `CCN(CC)C(=S)NC(=O)Cc1ccccc1` the “activity change, negative = cytotoxicity” value was inactive: -0.119%.
In the case of `O=c1[nH]c(CN2CCN(c3ccccc3O)CC2)nc2scc(-c3ccccc3Cl)c12`, the “activity change, negative = cytotoxicity” value is reported as inactive: -3.45%.
With `COc1ccc(S(=O)(=O)N2CCN(C(=O)CC3CC4CCC3C4)CC2)cc1` (centres undefined) the “activity change, negative = cytotoxicity” value was inactive: -22.5%.
For `COc1ccc(CSC2=CS(=O)(=O)c3ccccc3N2)cc1`, the Potency was active: 23.1 µM.
For `CN(c1ccccc1C(=O)NCc1ccco1)S(C)(=O)=O`, the “activity change, negative = cytotoxicity” value was inactive: 26.2%.
In the case of `Cc1ccc2c(C)c(C(=O)N(C)C(C)c3ccon3)oc2c1C` (centres undefined), the activity change, negative = cytotoxicity is reported as inconclusive: -48.3%.
For `NCCCNC(=S)NCCCN(Cc1ccc(Cl)cc1)c1ccc(Br)cn1`, the Potency was “inactive”.
In the case of `CC(Oc1ccccc1)c1ccnc(N)n1` (centres undefined), the Potency is reported as inconclusive: 11.6 µM [rising, partial curve, poor fit].
In the case of `Cc1nnc(NC(=O)C2CCN(C(=O)c3ccsc3)CC2)s1`, the “activity change, negative = cytotoxicity” value is reported as inactive: 11.5%.
For `CC(C)=CCOc1ccc([C@@H]2COc3c(ccc4c3C=CC(C)(C)O4)C2)c(O)c1`, the Potency was inconclusive: 25.9 µM [cytotoxic, single point].
With `O=C(Nc1ccc(N2CCOCC2)c(S(=O)(=O)Nc2ccccc2Cl)c1)c1ccc(F)cc1` the Potency was inconclusive: 29.1 µM [cytotoxic, single point].
For `O=C1Nc2ccc(Cl)cc2/C1=C/C1CC=CCC1` (centres undefined), the Potency was inconclusive: 23.1 µM [cytotoxic, single point].
With `CC(=O)Oc1cccc(N2C(=O)c3cccc4c([N+](=O)[O-])ccc(c34)C2=O)c1` the “activity change, negative = cytotoxicity” value was inactive: 2.69%.
For `COc1ccc(C(CCN2CCCC(C)C2)c2c(OC)cc(OC)c3c(-c4ccccc4)cc(=O)oc23)cc1` (centres undefined), the Potency was inconclusive: 25.9 µM [cytotoxic, single point].
For `Cc1ccnc(SCC(=O)N2CCC(C(N)=O)CC2)n1`, the Potency was inconclusive: 14.6 µM [rising, partial curve, poor fit].
With `Cc1cc(C)cc(NC(=O)c2cc(S(=O)(=O)N3CCC(C)CC3)cn2C)c1` the “activity change, negative = cytotoxicity” value was inactive: 9.42%.
With `CC[C@@H]1CCCCc2ccccc2[C@H](C(=O)C[C@@H](O)CC(C)=O)OC1=O` the activity change, negative = cytotoxicity was inconclusive: -31.1% [cytotoxic].
With `COc1ccc(OCc2ccc(/C=N\NC(=O)c3sccc3C)o2)cc1` the “activity change, negative = cytotoxicity” value was inactive: -0.833%.
With `CC(=O)/C(C#N)=C1\NC(=O)C(Cc2ccc(C)c(Cl)c2)S1` (centres undefined) the Potency was active: 9.2 µM.
With `CCOC(=O)C1CCN(C(=O)CSc2cc(=O)n(CC)c3ccccc23)CC1` the Potency was inconclusive: 32.6 µM [cytotoxic, partial curve, poor fit].
With `Cc1cc(C)nc(NC(=O)c2cnc3sccn3c2=O)n1` the Potency was inconclusive: 10.3 µM [rising, partial curve, poor fit].
With `Cc1nnc2ccc(-c3cccc(NC(=O)c4ccco4)c3)nn12` the Potency was inconclusive: 20.6 µM [cytotoxic, partial curve, poor fit].
With `O=c1[nH]c(NCCO)nnc1Cc1ccccc1` the Potency was inconclusive: 7.31 µM [rising, partial curve, poor fit].
For `COC(=O)c1c(NC(=O)c2ccccc2)sc(Cc2ccccc2)c1C`, the Potency was active: 13 µM.
In the case of `CN1CCN(C(=O)c2ccc3c(c2)N(Cc2ccc(Cl)cc2)C(=O)c2ccccc2S3(=O)=O)CC1`, the “activity change, negative = cytotoxicity” value is reported as inactive: 6.26%.
In the case of `CSCCC(NS(=O)(=O)c1ccc(Cl)cc1)C(=O)OCC(=O)NC12CC3CC(CC(C3)C1)C2` (centres undefined), the “activity change, negative = cytotoxicity” value is reported as inactive: -3.04%.
In the case of `CCOC(=O)N1CCC(N2Cc3cccc(C(=O)Nc4ccc(F)cc4)c3C2=O)CC1`, the Potency is reported as inconclusive: 29.1 µM [cytotoxic, single point].
In the case of `COc1ccc(-c2noc(CCC(=O)NCCCN3CCC(Cc4ccccc4)CC3)n2)cc1`, the Potency is reported as inconclusive: 29.1 µM [cytotoxic, single point].
With `c1cc(-c2nnc3sc(C4CCCCC4)nn23)ccn1` the Potency was inconclusive: 23.1 µM [cytotoxic, single point].
For `COc1ccc(NC(=O)CN(C)Cc2c(F)cccc2Cl)cc1S(=O)(=O)N1CCCCC1`, the Potency was inconclusive: 16.4 µM [cytotoxic, single point].
In the case of `Cc1ccc(S(=O)(=O)N2CCc3ccccc3C2)cc1C`, the “activity change, negative = cytotoxicity” value is reported as inactive: -6.79%.
For `Cc1nnc(SCC(=O)c2ccc(C(C)C)cc2)s1`, the Potency was inconclusive: 16.4 µM [cytotoxic, single point].
In the case of `O=C(c1cc2cc(Br)ccc2oc1=O)N1CCN(c2ccccn2)CC1`, the Potency is reported as inconclusive: 29.1 µM [cytotoxic, single point].
With `Cc1ccn2cc(C(=O)Nc3ccc4c(c3)OCCO4)nc2c1` the Potency was inconclusive: 23.1 µM [cytotoxic, single point].
In the case of `CCCOc1ccc(C(NC(=O)CC(C)C)NC(=O)CC(C)C)cc1OC`, the activity change, negative = cytotoxicity is reported as inconclusive: -41.6% [cytotoxic].
With `Cn1ncc(C#N)c1/N=C/N1CCCCCC1` the Potency was inconclusive: 20.6 µM [cytotoxic, single point].
With `N#Cc1ccccc1NC(=O)CSc1nnc(-c2ccccc2O)n1-c1ccccc1` the Potency was inconclusive: 16.4 µM [cytotoxic, single point].
For `COc1ccccc1NC(=O)CN1C(=O)CCSc2ccccc21`, the Potency was inconclusive: 16.4 µM [cytotoxic, partial curve, poor fit].
For `Cc1cc(C)nc(NC(=O)c2cc(-c3ccc(C)s3)nc3ccccc23)c1`, the Potency was inconclusive: 29.1 µM [cytotoxic, single point].
In the case of `CCN(C(=O)c1cn(C)c(=O)c2ccccc12)c1cccc(C)c1`, the Potency is reported as inconclusive: 0.0065 µM [cytotoxic, full curve, poor fit].
In the case of `Cn1nnnc1SCCCNCc1ccccc1OCc1ccc(F)cc1`, the Potency is reported as inconclusive: 18.4 µM [cytotoxic, single point].
For `CC(=O)Nc1cc(-c2cccc(C(=O)NCCO)c2)cn2c(-c3ccc(F)c(Cl)c3)cnc12`, the “activity change, negative = cytotoxicity” value was inactive: 26.9%.
In the case of `CC/C(=N\NC(=O)CSCc1ccccc1Cl)c1ccc2c(c1)OCCO2`, the “activity change, negative = cytotoxicity” value is reported as inactive: -0.213%.
For `CCC(CO)N=CC1=C(O)C(C(=O)c2ccccc2)CCC1=O` (centres undefined), the Potency was inconclusive: 32.6 µM [rising, partial curve, poor fit].
With `COc1cc2ccccc2cc1C(=O)NCC(c1cccs1)N(C)C` (centres undefined) the Potency was inconclusive: 18.4 µM [cytotoxic, partial curve].
